# “Also recorded” adds a separate entry of the source. Not every detail of the peptide structures is certain; ends, links or a residue may be inferred. Residues, ends and D or L forms follow the SMILES beside them. *: point of attachment. X1 = COC(=O)[C@H]1[C@@H](OC(=O)c2ccccc2)C[C@@H]2CC[C@H]1N2CCCCC(=O)*
# Tests used:
# C57BL/6 mice = experiment: Spontaneous and cocaine-evoked locomotor activity in vaccinated mice (open field activity system); type: in vivo
# C57BL6 mice = experiment: Anti-cocaine antibody response by ELISA in sera of vaccinated mice; settings: for anti-cocaine antibody response (ELISA): boosted at days 21, 42, 63, no exogenous adjuvant
compound,measurement,setting,value
COC(=O)[C@H]1[C@@H](OC(=O)c2ccccc2)C[C@@H]2CC[C@H]1N2CCCCC(=O)NCC(=O)NCC(=O)NCC(=O)N[C@@H](Cc1ccccc1)C(=O)N[C@@H](CCCCN)C(=O)N[C@@H](Cc1ccccc1)C(=O)N[C@@H](CCC(=O)O)C(=O)N[C@@H](Cc1ccccc1)C(=O)N[C@@H](CCCCN)C(=O)N[C@@H](Cc1ccccc1)C(=O)N[C@@H](CCC(=O)O)C(N)=O [CocKFE8] (X1-GGGFKFEFKFE-NH2),cocaine-evoked locomotor activity vs control,"C57BL/6 mice; CocKFE8 non-responder mice, cocaine 15 mg/kg IP, 60 min",did not differ
same,total cocaine-evoked peripheral activity vs control,"C57BL/6 mice; CocKFE8 responders, cocaine 15 mg/kg IP, entire 60-min session",modest yet significant decrease; also recorded: blunted cocaine-evoked locomotor activity
same,suppression of cocaine-evoked hyperactivity,"C57BL/6 mice; CocKFE8 responders, first 15 min time bin after cocaine injection (p=0.056)",apparent
same,number of non-responders (absorbance <0.05),"C57BL6 mice; 50 μg IP, vaccinated mice",approximately 30%
same,anti-cocaine antibody response (ELISA),"C57BL6 mice; IP route, 50 μg",induced anti-cocaine antibody responses; also recorded: induced adjuvant-free antibody responses
same,anti-cocaine antibody response (ELISA),C57BL6 mice; SC route,failed to elicit any antibodies

# Source: patent US20170239346A1, “NOVEL COCAINE HAPTENS AND NANOFIBER-BASED COCAINE VACCINES” (priority 2016, published 2017)
